# Data as given in publication PMC3281849.
# Amino acid sequences for entries named in this document (tags omitted).
# UniProt P19073: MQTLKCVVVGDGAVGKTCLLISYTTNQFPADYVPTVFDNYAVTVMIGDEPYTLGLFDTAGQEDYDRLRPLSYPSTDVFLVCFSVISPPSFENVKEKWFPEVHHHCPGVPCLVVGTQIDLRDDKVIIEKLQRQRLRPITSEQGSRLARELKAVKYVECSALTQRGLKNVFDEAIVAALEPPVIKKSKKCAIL
# UniProt Q1ZXH8: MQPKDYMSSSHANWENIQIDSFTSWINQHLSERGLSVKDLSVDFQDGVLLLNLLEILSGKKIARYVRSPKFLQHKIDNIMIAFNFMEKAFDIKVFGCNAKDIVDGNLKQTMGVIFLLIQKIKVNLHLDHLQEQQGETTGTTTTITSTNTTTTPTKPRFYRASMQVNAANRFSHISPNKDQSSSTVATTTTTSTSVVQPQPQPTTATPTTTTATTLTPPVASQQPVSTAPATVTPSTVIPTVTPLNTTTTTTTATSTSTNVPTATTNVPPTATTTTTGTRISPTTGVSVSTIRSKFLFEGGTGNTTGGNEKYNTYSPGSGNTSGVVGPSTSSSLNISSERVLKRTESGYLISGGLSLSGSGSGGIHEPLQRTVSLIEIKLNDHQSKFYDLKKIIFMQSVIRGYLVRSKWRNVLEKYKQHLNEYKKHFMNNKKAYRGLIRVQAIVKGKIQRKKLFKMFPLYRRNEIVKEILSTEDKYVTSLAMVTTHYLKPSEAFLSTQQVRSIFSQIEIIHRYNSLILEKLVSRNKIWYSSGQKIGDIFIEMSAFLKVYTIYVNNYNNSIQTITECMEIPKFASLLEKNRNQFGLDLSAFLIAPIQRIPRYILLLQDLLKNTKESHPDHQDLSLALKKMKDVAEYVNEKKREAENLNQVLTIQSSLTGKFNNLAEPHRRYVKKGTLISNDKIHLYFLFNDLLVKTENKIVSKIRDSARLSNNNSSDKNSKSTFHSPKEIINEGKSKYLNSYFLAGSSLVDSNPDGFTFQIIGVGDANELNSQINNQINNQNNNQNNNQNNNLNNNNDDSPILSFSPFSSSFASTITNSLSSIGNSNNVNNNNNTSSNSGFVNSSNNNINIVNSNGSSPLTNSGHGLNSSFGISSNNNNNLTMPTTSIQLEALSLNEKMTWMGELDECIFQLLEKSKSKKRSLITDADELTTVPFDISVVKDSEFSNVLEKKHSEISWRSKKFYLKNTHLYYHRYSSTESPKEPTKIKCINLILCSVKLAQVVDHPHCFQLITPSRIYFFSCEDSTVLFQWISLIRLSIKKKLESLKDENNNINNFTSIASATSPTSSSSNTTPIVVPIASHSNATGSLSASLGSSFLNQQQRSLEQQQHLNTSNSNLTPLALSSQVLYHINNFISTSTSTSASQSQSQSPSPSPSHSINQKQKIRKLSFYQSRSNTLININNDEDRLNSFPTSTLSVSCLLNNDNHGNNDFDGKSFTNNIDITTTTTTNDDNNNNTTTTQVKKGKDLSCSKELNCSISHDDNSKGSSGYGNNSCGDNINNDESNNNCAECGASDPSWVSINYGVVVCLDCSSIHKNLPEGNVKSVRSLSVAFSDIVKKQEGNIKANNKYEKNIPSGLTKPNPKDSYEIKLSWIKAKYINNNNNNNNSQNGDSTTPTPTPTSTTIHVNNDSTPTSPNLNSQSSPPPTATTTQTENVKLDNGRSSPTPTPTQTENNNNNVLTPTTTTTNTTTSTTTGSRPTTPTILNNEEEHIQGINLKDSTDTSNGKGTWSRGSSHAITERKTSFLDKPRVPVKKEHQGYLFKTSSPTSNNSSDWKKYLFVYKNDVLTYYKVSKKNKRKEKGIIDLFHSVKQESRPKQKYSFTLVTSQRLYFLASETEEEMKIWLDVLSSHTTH
# Results are given in words; binding and its absence hold for the method and conditions named. In cells and extracts the contact can be indirect. Some binding calls cover weakened binding; strength is not graded here. For part of these data: Sequences can lack the tags named with a protein.
# T1: DdS4, endogenous in D. discoideum AX2 cells (D. discoideum (endogenous in AX2)) (UniProt P51405)
# T1 sequence: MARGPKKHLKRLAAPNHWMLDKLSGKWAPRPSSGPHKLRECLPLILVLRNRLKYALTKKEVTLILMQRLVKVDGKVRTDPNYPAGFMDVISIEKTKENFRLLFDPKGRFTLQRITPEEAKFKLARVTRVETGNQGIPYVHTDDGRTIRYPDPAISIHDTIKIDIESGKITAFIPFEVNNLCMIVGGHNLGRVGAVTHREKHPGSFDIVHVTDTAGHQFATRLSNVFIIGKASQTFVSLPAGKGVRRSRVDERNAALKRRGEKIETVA
# T2: D. discoideum ribosomal protein S4 (DdS4), expressed in S. cerevisiae (D. discoideum) (UniProt P51405)
# T2 sequence: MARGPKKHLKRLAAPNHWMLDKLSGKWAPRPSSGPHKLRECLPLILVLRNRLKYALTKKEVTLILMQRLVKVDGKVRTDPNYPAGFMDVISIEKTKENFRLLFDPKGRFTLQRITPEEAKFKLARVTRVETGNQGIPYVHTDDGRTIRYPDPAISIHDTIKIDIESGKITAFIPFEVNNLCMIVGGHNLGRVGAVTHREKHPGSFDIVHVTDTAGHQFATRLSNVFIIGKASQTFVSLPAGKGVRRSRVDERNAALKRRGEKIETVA
# T3: GST-tagged ScCdc24p (S. cerevisiae) (UniProt P11433)
# T3 sequence: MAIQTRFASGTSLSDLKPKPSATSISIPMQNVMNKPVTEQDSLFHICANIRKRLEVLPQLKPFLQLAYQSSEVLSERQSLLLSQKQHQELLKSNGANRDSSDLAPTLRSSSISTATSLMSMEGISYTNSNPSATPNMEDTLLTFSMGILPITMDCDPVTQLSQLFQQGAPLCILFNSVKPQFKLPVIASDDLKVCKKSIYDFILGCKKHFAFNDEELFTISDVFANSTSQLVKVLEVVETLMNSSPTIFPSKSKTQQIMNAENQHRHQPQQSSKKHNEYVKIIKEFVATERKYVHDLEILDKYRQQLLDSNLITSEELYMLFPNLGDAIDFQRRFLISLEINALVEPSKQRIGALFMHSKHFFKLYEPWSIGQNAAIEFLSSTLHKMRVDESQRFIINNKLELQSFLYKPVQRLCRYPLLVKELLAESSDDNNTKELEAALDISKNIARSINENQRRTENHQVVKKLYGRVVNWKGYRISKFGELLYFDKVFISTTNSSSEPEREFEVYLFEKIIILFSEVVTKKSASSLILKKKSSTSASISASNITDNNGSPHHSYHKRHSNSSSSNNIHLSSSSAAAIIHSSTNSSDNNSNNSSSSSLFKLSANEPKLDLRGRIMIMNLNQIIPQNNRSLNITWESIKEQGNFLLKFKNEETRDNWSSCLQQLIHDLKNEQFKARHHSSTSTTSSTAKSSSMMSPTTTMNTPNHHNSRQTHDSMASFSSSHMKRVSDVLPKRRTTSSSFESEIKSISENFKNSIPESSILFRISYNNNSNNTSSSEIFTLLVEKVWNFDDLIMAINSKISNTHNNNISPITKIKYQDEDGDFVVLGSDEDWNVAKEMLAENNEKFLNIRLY
# B1: GST-tagged ScCdc24p (protein, UniProt P11433 1-854)
# chain: MAIQTRFASGTSLSDLKPKPSATSISIPMQNVMNKPVTEQDSLFHICANIRKRLEVLPQLKPFLQLAYQSSEVLSERQSLLLSQKQHQELLKSNGANRDSSDLAPTLRSSSISTATSLMSMEGISYTNSNPSATPNMEDTLLTFSMGILPITMDCDPVTQLSQLFQQGAPLCILFNSVKPQFKLPVIASDDLKVCKKSIYDFILGCKKHFAFNDEELFTISDVFANSTSQLVKVLEVVETLMNSSPTIFPSKSKTQQIMNAENQHRHQPQQSSKKHNEYVKIIKEFVATERKYVHDLEILDKYRQQLLDSNLITSEELYMLFPNLGDAIDFQRRFLISLEINALVEPSKQRIGALFMHSKHFFKLYEPWSIGQNAAIEFLSSTLHKMRVDESQRFIINNKLELQSFLYKPVQRLCRYPLLVKELLAESSDDNNTKELEAALDISKNIARSINENQRRTENHQVVKKLYGRVVNWKGYRISKFGELLYFDKVFISTTNSSSEPEREFEVYLFEKIIILFSEVVTKKSASSLILKKKSSTSASISASNITDNNGSPHHSYHKRHSNSSSSNNIHLSSSSAAAIIHSSTNSSDNNSNNSSSSSLFKLSANEPKLDLRGRIMIMNLNQIIPQNNRSLNITWESIKEQGNFLLKFKNEETRDNWSSCLQQLIHDLKNEQFKARHHSSTSTTSSTAKSSSMMSPTTTMNTPNHHNSRQTHDSMASFSSSHMKRVSDVLPKRRTTSSSFESEIKSISENFKNSIPESSILFRISYNNNSNNTSSSEIFTLLVEKVWNFDDLIMAINSKISNTHNNNISPITKIKYQDEDGDFVVLGSDEDWNVAKEMLAENNEKFLNIRLY
# B2: GST-tagged ScBem1p (protein, UniProt P29366 1-551)
# chain: MLKNFKLSKRDSNGSKGRITSADISTPSHDNGSVIKHIKTVPVRYLSSSSTPVKSQRDSSPKNRHNSKDITSPEKVIKAKYSYQAQTSKELSFMEGEFFYVSGDEKDWYKASNPSTGKEGVVPKTYFEVFDRTKPSSVNGSNSSSRKVTNDSLNMGSLYAIVLYDFKAEKADELTTYVGENLFICAHHNCEWFIAKPIGRLGGPGLVPVGFVSIIDIATGYATGNDVIEDIKSVNLPTVQEWKSNIARYKASNISLGSVEQQQQQSITKPQNKSAKLVDGELLVKASVESFGLEDEKYWFLVCCELSNGKTRQLKRYYQDFYDLQVQLLDAFPAEAGKLRDAGGQWSKRIMPYIPGPVPYVTNSITKKRKEDLNIYVADLVNLPDYISRSEMVHSLFVVLNNGFDREFERDENQNNIKTLQENDTATFATASQTSNFASTNQDNTLTGEDLKLNKKLSDLSLSGSKQAPAQSTSGLKTTKIKFYYKDDIFALMLKGDTTYKELRSKIAPRIDTDNFKLQTKLFDGSGEEIKTDSQVSNIIQAKLKISVHDI
# B3: GST-tagged ScCla4p (protein, UniProt P48562 1-842)
# chain: MSLSAAANKISDNDFQNIGPAPRPPSSNSQGRTCYNQTQPITKLMSQLDLTSASHLGTSTSKKKSGWVSYKDDGILSFIWQKRYLMLHDSYVALYKNDKQNDDAILKIPLTSIISVSRTQLKQYCFELVRCSDRNSVSSGSSSSLNVSSDSNSKKSIYIATKTESDLHSWLDAIFAKCPLLSGVSSPTNFTHKVHVGFDPETGSFVGMPTNWEKLLKHSRITGEDWNNNSAAVIQVLQFYQEYNGAGNPTNTLDKPQSGETSSSQKSLPNSYNDNKLRNNSVNSKSSSGVSSSMVSQRKTSQPPNTKSPVSLGSGSLPPINTKLPTSQSNIPRHLQNVPNQQYPKMRNGHSPTNGQFPRGPMHPNNSQRSLQQQQQQQQQQKQQHQQYPYHHQGPSPSPSPSPSPLNPYRPHHNMINPYSKQPQSPLSSQSTQNQAIPRYAQNSSPTAAHFQPQRTAPKPPISAPRAPYPSNQNATSNTHVQPVAPKNDQSTPQTMRQAPKRPDADVAQPGGVAKPKKPARPTMSTAEIMSKLKKVTVNADPSQCFKVIEKAGQGASGSVYLAERTHIPTESNMIELINNDIDEPHVGDKVAIKQMVLSKQPRKELIVNEILVMKDSRHKNIVNFLEAYLRTDDDLWVVMEFMEGGSLTDIIENSPTNDNSHSPLTEPQIAYIVRETCQGLKFLHDKHIIHRDIKSDNVLLDTRARVKITDFGFCARLTDKRSKRATMVGTPYWMAPEVVKQREYDEKIDVWSLGIMTIEMLEGEPPYLNEDPLKALYLIATNGTPKLKHPESLSLEIKRFLSVCLCVDVRYRASTEELLHHGFFNMACDPKDLTSLLEWKE
# B4: DdS4 in a cell lysate over-expressing DdS4 (GST pull-down) (protein, UniProt P51405 1-267)
# chain: MARGPKKHLKRLAAPNHWMLDKLSGKWAPRPSSGPHKLRECLPLILVLRNRLKYALTKKEVTLILMQRLVKVDGKVRTDPNYPAGFMDVISIEKTKENFRLLFDPKGRFTLQRITPEEAKFKLARVTRVETGNQGIPYVHTDDGRTIRYPDPAISIHDTIKIDIESGKITAFIPFEVNNLCMIVGGHNLGRVGAVTHREKHPGSFDIVHVTDTAGHQFATRLSNVFIIGKASQTFVSLPAGKGVRRSRVDERNAALKRRGEKIETVA
# B5: Endogenous ScCdc24p (protein, UniProt P11433 1-854)
# chain: MAIQTRFASGTSLSDLKPKPSATSISIPMQNVMNKPVTEQDSLFHICANIRKRLEVLPQLKPFLQLAYQSSEVLSERQSLLLSQKQHQELLKSNGANRDSSDLAPTLRSSSISTATSLMSMEGISYTNSNPSATPNMEDTLLTFSMGILPITMDCDPVTQLSQLFQQGAPLCILFNSVKPQFKLPVIASDDLKVCKKSIYDFILGCKKHFAFNDEELFTISDVFANSTSQLVKVLEVVETLMNSSPTIFPSKSKTQQIMNAENQHRHQPQQSSKKHNEYVKIIKEFVATERKYVHDLEILDKYRQQLLDSNLITSEELYMLFPNLGDAIDFQRRFLISLEINALVEPSKQRIGALFMHSKHFFKLYEPWSIGQNAAIEFLSSTLHKMRVDESQRFIINNKLELQSFLYKPVQRLCRYPLLVKELLAESSDDNNTKELEAALDISKNIARSINENQRRTENHQVVKKLYGRVVNWKGYRISKFGELLYFDKVFISTTNSSSEPEREFEVYLFEKIIILFSEVVTKKSASSLILKKKSSTSASISASNITDNNGSPHHSYHKRHSNSSSSNNIHLSSSSAAAIIHSSTNSSDNNSNNSSSSSLFKLSANEPKLDLRGRIMIMNLNQIIPQNNRSLNITWESIKEQGNFLLKFKNEETRDNWSSCLQQLIHDLKNEQFKARHHSSTSTTSSTAKSSSMMSPTTTMNTPNHHNSRQTHDSMASFSSSHMKRVSDVLPKRRTTSSSFESEIKSISENFKNSIPESSILFRISYNNNSNNTSSSEIFTLLVEKVWNFDDLIMAINSKISNTHNNNISPITKIKYQDEDGDFVVLGSDEDWNVAKEMLAENNEKFLNIRLY
# What was measured:
# [1] = target: T1, DdS4, endogenous in D. discoideum AX2 cells (D. discoideum (endogenous in AX2)); test: co-IP; lysates of control AX2 D. discoideum cells; pull-down with anti-DdS4 antibody; blot with anti-human Cdc24 (MCF2/Dbl), anti-human Cdc42 or anti-GxcDD
# [2] = target: T2, D. discoideum ribosomal protein S4 (DdS4), expressed in S. cerevisiae (D. discoideum); test: co-IP; lysates of S. cerevisiae bem1 cells (lacking Bem1p) with DdS4; pull-down with anti-DdS4 antibody; blot with commercial anti-CDC24 or anti-CDC42
# [3] = target: T2, D. discoideum ribosomal protein S4 (DdS4), expressed in S. cerevisiae (D. discoideum); test: co-IP; lysates of cells over-expressing the GST-tagged proteins mixed in equal volumes, with DdS4; precleared with pre-immune IgG and protein G Sepharose; anti-DdS4 antibody overnight at 4°C, protein G Sepharose 2 hrs; blot with anti-GST
# [4] = target: GST-tagged ScCdc42p (S. cerevisiae) (UniProt P19073); test: pull-down; GST-tagged Cdc42p or Cdc24p from E. coli BL21 lysates held on GSH beads, incubated with a cell lysate over-expressing DdS4, 2 hrs at 4°C; washed with 50 mM HEPES, 100 mM NaCl, Triton X, 1 mM DTT, 5 mM EDTA; blot with anti-DdS4; only the target purified
# [5] = target: T3, GST-tagged ScCdc24p (S. cerevisiae); test: as above
molecule,measurement,setting,value
RacGEF GxcDD (from UniProt Q1ZXH8 1-1632),binding,[1],binds
Endogenous ScCdc42p (from UniProt P19073 1-191),binding,[2],binds
GST-tagged ScCdc42p (from UniProt P19073 1-191),binding,[3],binds
B1,binding,[3],binds
B2,binding,[3],binds
B3,binding,[3],binds
B4,binding,[4],binds
same,binding,[5],binds
B5,binding,[2],binds
